{"sequences": {"note": "By UniProt entry, the sequences of proteins in these tests, tags left out. Residues count along the entry.", "UniProt P05067, residues 672-713": "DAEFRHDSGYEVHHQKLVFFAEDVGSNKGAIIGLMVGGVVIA"}, "source": "patent US20230257424A1", "binders": {"B1": {"name": "free ABP (synthetic) (peptide)", "peptide": "KTFKTRKASAQASLASKDKTPKSKSKKRNSTQLKSRVKNI"}}, "key": {"[1]": {"molecular_target": "Aß1-42 preparations consisting predominantly of higher oligomers (Oli) (UniProt P05067)", "assay": "ELISA, ABP coated on the plate, Aß in solution, 6E10 or 4G8 detection"}, "[2]": {"molecular_target": "Aß1-42 preparations consisting predominantly of higher oligomers (Oli) (UniProt P05067)", "assay": "ELISA, ABP coated on the plate, Aß1-42 preparation in solution, bound Aß detected with 6E10 or 4G8"}}, "note": "Results are given in words; binding and its absence hold for the method and conditions named. Some entries that bind do so weakly or less than the wild type.", "data": [{"binder": "B1", "values": [{"measurement": "binding", "setting": "[1]", "result": "binds"}, {"measurement": "binding", "setting": "[2]", "result": "binds"}]}]}
